Values from PubChem BioAssay AID720505 (Drosophila RNAi Screening Center, 2013).
The screen tested about 20,000 reagents; below is a random part of those that have a named target and a result. Of all reagents, about 2,100 (10%) were called active. 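Raw plate signals without normalisation; calls rest on control-based scores that were not deposited; replicate 2 separates called from uncalled poorly.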 No sequences are given here. Not stated in the record: the amount of reagent, the time to read-out.

Test: 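Genes needed for store-operated calcium entry in fly cells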 (primary screen)
Cell system: Drosophila S2R+ cells
Reagents: long dsRNA against Drosophila genes
Challenge: thapsigargin (2 µM) in calcium-free buffer to empty internal stores, then 2 mM calcium added back
Read-out: 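Fluo-4 signal in 384-well plates read on a FLIPR after thapsigargin (2 µM, calcium-free) store depletion and 2 mM calcium add-back; unnormalised mean endpoint per well; screen run twice, selected wells retested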
Direction: calcium signal and retest calcium signal: higher = more calcium entry after store depletion
Call rule: 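Knock-downs counted as hits when calcium entry dropped relative to STIM1 positive and Rho1 negative controls present on each plate; roughly 1500 genes called, with reductions of differing size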
Calls: active = called as lowering calcium entry; inactive = not called

gene | dsRNA | calcium signal, replicate 1 | calcium signal, replicate 2 | retest calcium signal, replicate 1 | retest calcium signal, replicate 2 | Outcome
CG13280 (GeneID 35015) | DRSC02253 | 64.6 | 92.9 | – | – | active
Gr59c (GeneID 192481) | DRSC04185 | 150 | 203 | – | – | inactive
CG30486 (GeneID 246645) | DRSC06680 | 108 | 160 | – | – | inactive
CG11672 (GeneID 40977) | DRSC14344 | 77.6 | 119 | – | – | active
Fum2 (GeneID 31606) | DRSC18345 | 165 | 137 | – | – | inactive
Prosalpha5 (GeneID 36951) | DRSC07514 | 55.9 | 67.7 | – | – | active
CG10357 (GeneID 38435) | DRSC08155 | 77.8 | 109 | – | – | inactive
Eip75B (GeneID 39999) | DRSC11161 | 138 | 117 | – | – | inactive
Eip75B (GeneID 39999) | DRSC23047 | 88.5 | 141 | – | – | inactive
atlas (GeneID 37689) | DRSC04183 | 69.3 | 103 | – | – | inactive
Cip4 (GeneID 38534) | DRSC08469 | 108 | 109 | – | – | inactive
Cip4 (GeneID 38534) | DRSC21740 | 121 | 98.9 | – | – | inactive
LeuRS-m (GeneID 38581) | DRSC08595 | 80.7 | 89.7 | – | – | inactive
fd3F (GeneID 31336) | DRSC17843 | 114 | 77.4 | – | – | inactive
fd3F (GeneID 31336) | DRSC23032 | 147 | 183 | – | – | inactive
CG11041 (GeneID 37278) | DRSC06025 | 144 | 149 | – | – | inactive
Adi1 (GeneID 326189) | DRSC10945 | 96.9 | 84.2 | – | – | inactive
Adi1 (GeneID 326189) | DRSC21485 | 129 | 97.6 | – | – | inactive
Alp11 (GeneID 32496) | DRSC20080 | 90.3 | 121 | – | – | inactive
CG5214 (GeneID 41360) | DRSC15739 | 115 | 118 | 6551 | 126 | inactive
CG5214 (GeneID 41360) | DRSC22842 | 101 | 100 | – | – | inactive
CG34112 (GeneID 4379842) | DRSC12235 | 112 | 163 | – | – | inactive
Dnaaf4 (GeneID 34547) | DRSC02405 | 193 | 182 | – | – | inactive
CG3868 (GeneID 39580) | DRSC10380 | 121 | 120 | – | – | inactive
Spase22-23 (GeneID 42885) | DRSC15857 | 95.6 | 223 | – | – | active
CG3961 (GeneID 40056) | DRSC10390 | 46.9 | 99.5 | – | – | active
CG3961 (GeneID 40056) | DRSC10391 | 108 | 134 | – | – | inactive
LTV1 (GeneID 36146) | DRSC05951 | 139 | 111 | – | – | inactive
l(3)72Dn (GeneID 39774) | DRSC10468 | 101 | 136 | – | – | inactive
CG14332 (GeneID 42098) | DRSC14811 | 111 | 171 | – | – | inactive
cbt (GeneID 33224) | DRSC00655 | 82.7 | 147 | – | – | inactive
bug (GeneID 36749) | DRSC07137 | 97.9 | 92.6 | – | – | inactive
Ttc26 (GeneID 41905) | DRSC15591 | 99.5 | 145 | – | – | inactive
CG10934 (GeneID 37013) | DRSC06017 | 156 | 106 | – | – | inactive
CG1806 (GeneID 32163) | DRSC19787 | 159 | 82.3 | – | – | inactive
tou (GeneID 36241) | DRSC06006 | 150 | 174 | – | – | inactive
tou (GeneID 36241) | DRSC22710 | 137 | 160 | – | – | inactive
CG32313 (GeneID 317973) | DRSC21450 | 141 | 72.4 | – | – | inactive
Jheh2 (GeneID 37181) | DRSC06530 | 109 | 108 | – | – | inactive
beat-VII (GeneID 43213) | DRSC13780 | – | – | – | – | active
beat-VII (GeneID 43213) | DRSC14743 | 104 | 129 | – | – | inactive
beat-VII (GeneID 43213) | DRSC14744 | 96.9 | 120 | – | – | inactive
beat-VII (GeneID 43213) | DRSC22825 | 112 | 81.1 | – | – | inactive
CG11999 (GeneID 40637) | DRSC12185 | 99.9 | 114 | – | – | inactive
bsh (GeneID 35266) | DRSC03498 | 160 | 145 | – | – | inactive
dsd (GeneID 43315) | DRSC15850 | 121 | 91.3 | – | – | inactive
RpL26 (GeneID 40060) | DRSC10726 | 73.1 | 92.6 | – | – | inactive
amos (GeneID 35110) | DRSC03484 | 148 | 103 | – | – | inactive
Nepl13 (GeneID 42699) | DRSC15632 | 127 | 143 | – | – | inactive
AP-2mu (GeneID 42642) | DRSC14090 | 229 | 213 | – | – | inactive
Rrp40 (GeneID 319033) | DRSC00074 | 66 | 142 | – | – | active
Ir56c (GeneID 37251) | DRSC06544 | 181 | 120 | – | – | inactive
sut3 (GeneID 44268) | DRSC07702 | 119 | 143 | – | – | inactive
Pfdn2 (GeneID 46121) | DRSC10618 | 123 | 92.1 | – | – | inactive
CG34345 (GeneID 5740402) | DRSC02126 | 108 | 118 | – | – | inactive
KdelR (GeneID 34427) | DRSC03353 | 118 | 89.3 | – | – | inactive

Active calls (from the list above):
gene | dsRNA | calcium signal, replicate 1 | calcium signal, replicate 2 | retest calcium signal, replicate 1 | retest calcium signal, replicate 2 | Outcome
CG13280 (GeneID 35015) | DRSC02253 | 64.6 | 92.9 | – | – | active
CG11672 (GeneID 40977) | DRSC14344 | 77.6 | 119 | – | – | active
Prosalpha5 (GeneID 36951) | DRSC07514 | 55.9 | 67.7 | – | – | active
Spase22-23 (GeneID 42885) | DRSC15857 | 95.6 | 223 | – | – | active
CG3961 (GeneID 40056) | DRSC10390 | 46.9 | 99.5 | – | – | active
beat-VII (GeneID 43213) | DRSC13780 | – | – | – | – | active
Rrp40 (GeneID 319033) | DRSC00074 | 66 | 142 | – | – | active
